The target of assay [1] is T1, cynomolgus IL-25 (cynomolgus, UniProt G7P9V9 33-176).
T1 construct: In-house production
T1 sequence: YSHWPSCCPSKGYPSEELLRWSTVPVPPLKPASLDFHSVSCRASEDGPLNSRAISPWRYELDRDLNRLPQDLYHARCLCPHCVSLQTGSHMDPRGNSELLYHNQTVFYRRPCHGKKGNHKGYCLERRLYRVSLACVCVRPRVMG
Description: ELISA (FIG. 4). For orientation: ELISA stands for enzyme-linked immunosorbent assay.

Assay [2] has as its target T1, cynomolgus IL-25. Description: ELISA, plate coated with cynomolgus IL-25.

These are yes or no findings as the source states them, for the method shown. Some entries that bind do so weakly or less than the wild type.

B1: murine anti-IL-25 monoclonal antibody 18H3 (antibody, V domains shown)
VH: QVTLKESGPGILQPSQTLSLTCSFSGFSLSTSGMGLGWIRQPSGKGLEWLAHIWWDDVKHYKPALKSRLTISKDISSSQVFLTIASVDTADTATYYCARMGQLHYYGYDYAMDYWGQGTSVTVSS
VL: QIVLTQSPAIMSASPGEKVTISCSASSSVSYMYWYQQKPGSSPKPWIYRTSNLASGVPARFSGSGSGTSYSLTISSMEAEDAATYYCQLYHSYPPTWTFGGGTKLEIK
notes: also called parental antibody; parental murine mAb
As to B1, the binding entry in the assay with cynomolgus IL-25 [1] and with cynomolgus IL-25 [2] was “binds” in each case.

B2: VH1-1 + VL2-1 (humanized anti-IL-25 antibody formed by VH1-1 and VL2-1) (antibody, V domains shown)
VH: QVTLKESGPTLVKPTQTLTLTCTFSGFSLSTSGMGLGWIRQPPGKALEWLAHIWWDDVKHYKPALKSRLTITKDTSKNQVVLTMTNVDPVDTATYYCARMGQLHYYGYDYAMDYWGQGTLVTVSS
VL: DIQLTQSPSFLSASVGDRVTITCSASSSVSYMYWYQQKPGKAPKPLIYRTSNLASGVPSRFSGSGSGTEYTLTISSMQPEDFATYYCQLYHSYPPTWTFGQGTKLEIK
Turning to B2, the binding entry with cynomolgus IL-25 [1] and in the assay with cynomolgus IL-25 [2] was “binds” in each case.

B3: VH2-1 + VL1-2 (humanized anti-IL-25 antibody formed by VH2-1 and VL1-2) (antibody, V domains shown)
VH: QVTLRESGPALLKPTQTLTLTCTFSGFSLSTSGMGLGWIRQPPGKALEWLAHIWWDDVKHYKPALKSRLTISKDTSKNQVVLTITNVDPVDTATYYCARMGQLHYYGYDYAMDYWGQGTLVTVSS
VL: EIVLTQSPATLSASPGERVTISCSASSSVSYMYWYQQKPGQAPRPLIYRTSNLASGVPARFSGSGSGTDYTLTISSMEPEDFATYYCQLYHSYPPTWTFGQGTKLEIK
Consider B3, for which the binding result with cynomolgus IL-25 [1] and in the assay with cynomolgus IL-25 [2] was “binds” each time.

For the origin of these results see US20210332123A1 (SUZHOU KANOVA BIOPHARMACEUTICAL, published 2021).
